Assay results reported in patent US20030032774A1, “Novel opioid peptides for the treatment of pain” (priority 1994, published 2003).

Amino acid sequences for entries named in this document (tags omitted). A change or cut given only in a name is not applied to a line headed by its entry.
UniProt P33535, whole entry: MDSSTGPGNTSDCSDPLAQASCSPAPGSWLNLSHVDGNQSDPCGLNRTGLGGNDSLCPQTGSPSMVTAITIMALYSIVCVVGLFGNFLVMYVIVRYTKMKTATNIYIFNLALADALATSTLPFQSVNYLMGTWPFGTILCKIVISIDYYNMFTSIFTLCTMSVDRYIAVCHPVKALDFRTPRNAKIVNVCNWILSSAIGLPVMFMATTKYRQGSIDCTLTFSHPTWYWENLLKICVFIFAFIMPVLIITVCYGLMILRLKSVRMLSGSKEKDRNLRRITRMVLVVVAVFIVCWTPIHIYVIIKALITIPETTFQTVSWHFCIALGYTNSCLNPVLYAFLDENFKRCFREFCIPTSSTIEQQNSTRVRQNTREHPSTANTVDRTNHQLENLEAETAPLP
UniProt P33533, whole entry: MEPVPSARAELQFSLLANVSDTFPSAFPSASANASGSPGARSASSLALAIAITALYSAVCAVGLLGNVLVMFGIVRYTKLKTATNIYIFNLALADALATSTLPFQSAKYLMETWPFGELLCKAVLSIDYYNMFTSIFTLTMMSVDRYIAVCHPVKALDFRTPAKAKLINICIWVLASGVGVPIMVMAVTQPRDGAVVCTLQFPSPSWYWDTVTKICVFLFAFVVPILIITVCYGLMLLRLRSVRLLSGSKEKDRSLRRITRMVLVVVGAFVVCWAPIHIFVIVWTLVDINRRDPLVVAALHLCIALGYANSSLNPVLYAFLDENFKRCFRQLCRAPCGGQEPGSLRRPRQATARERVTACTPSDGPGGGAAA
UniProt P97266, whole entry, looked up: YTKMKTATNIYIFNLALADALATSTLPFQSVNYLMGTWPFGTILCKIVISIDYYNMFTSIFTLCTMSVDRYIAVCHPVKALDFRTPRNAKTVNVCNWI

What was measured:
[1] = exposed to brushborder kidney membranes
μ receptor = biological target: T1, μ receptor (Rattus norvegicus, UniProt P33535); experiment: Radioligand binding assay, μ opioid receptor ((3H)-DAMGO, brain membranes)
T1 construct: the brains (minus the cerebellum) were removed, placed in ice-cold saline solution, and then homogenized; from tissue; host or cells: rat brain (minus cerebellum) membranes
Description: (§1) PBQ (phenyl-ρ-benzoquinone) induced writhing in mice is an assessment of both central and peripheral analgesia (see Sigmund, et al., Proc. Soc. Exp. Biol. Med. 95:729 (1957)). Central analgesia is determined by the inhibition of a hot-plate response in mice (see, Wolfe, et al., J. Pharmacol. Exp. Ther. 80:300 (1944)). Assays measuring opioid receptor binding affinities for μ and δ receptors as well as the GPI assay were determined through experimental protocol set out in Schiller et al. (Biophys. Res. Commun. 85:1322 (1975)). The references by Sigmund, et al., Wolfe, et al., and Schiller, et al. are each hereby incorporated by reference.
Male Sprague-Dawley rats weighing between 350-450 g were sacrificed by inhalation of CO2. The rats were decapitated and the brains (minus the cerebellum) were removed, placed in ice-cold saline solution, and then homogenized in ice-cold 50 mM Tris buffer pH 7.4 (10 ml/brain). Membranes were centrifuged at 14000 rpm for 30 min. at 4° C. The pellets were re-suspended in approximately 6 ml/brain of ice-cold Tris buffer 50 mM pH 7.4 and stored at −78° C. until ready for use. Protein quantification of the brain homogenate was conducted according to protein assay kit purchased (Bio-Rad).
(^3H)-DAMGO and (^3H)-DAGLE were used as radioligands for the μ and δ receptors, respectively. Radioligand 50 μl, membranes 100 μl, and serially diluted test compound were incubated for 1 hr at 22° C. Nonspecific binding was determined using a 500 fold excess of unlabeled ligand in the presence of tracer and membranes. Free ligand was separated from bound by filtration through Whatman GF/B paper (presoaked in polyethylenimine 1% aqueous solution) and rinsing with ice-cold 50 mM Tris pH 7.4 using a Brandel cell harvester. The filters were dried and radioactivity was counted in a 24 well microplate in the presence of 500 μl scintillant per well. Radioactivity was measured using a Wallace 1450 Microbeta counter. Ki's for the various compounds were determined from the IC50 according to the Cheng and Prusoff equation.

δ receptor = δ receptor (Rattus norvegicus, UniProt P33533); experiment: biochemical
Description: as §1
Male Sprague-Dawley rats weighing between 350-450 g were sacrificed by inhalation of CO2. […] The pellets were re-suspended in approximately 6 ml/brain of ice-cold Tris buffer 50 mM pH 7.4 and stored at −78° C. until ready for use. Protein quantification of the brain homogenate was conducted according to protein assay kit purchased (Bio-Rad).
(^3H)-DAMGO and (^3H)-DAGLE were used as radioligands for the μ and δ receptors, respectively. […] Nonspecific binding was determined using a 500 fold excess of unlabeled ligand in the presence of tracer and membranes. […] The filters were dried and radioactivity was counted in a 24 well microplate in the presence of 500 μl scintillant per well. Radioactivity was measured using a Wallace 1450 Microbeta counter. […]

μ receptors = μ receptors (Cavia porcellus, UniProt P97266); experiment: Guinea Pig Ileum (GPI) assay, longitudinal muscle preparation
Description: The activity of the peptide compounds on μ receptors was determined using the Guinea Pig Ileum (GPI) assay (longitudinal muscle preparation) according to the procedures described in Schiller et al., Biophys. Res. Commun. 85:1322 (1975).

Structure (SMILES) | time to degradation [1] [min] | Ki (μ receptor; Binding Assay Kiμ, Table 2) [nM] | Ki (μ receptor; Ki^μ, Table 1) [nM] | Binding Assay Kiδ Kiμ (μ receptor; Table 2, selectivity ratio) | Ki (δ receptor) [nM] | IC50 (μ receptors; CPI IC50, Table 2) [nM] | IC50 (μ receptors; GPI(IC50), Table 1) [nM]
C[C@@H](NC(=O)[C@@H](N)Cc1ccc(O)cc1)C(=O)N[C@@H](Cc1ccccc1)C(=O)N[C@@H](Cc1ccccc1)C(N)=O [BCH1774, H-Tyr-D-Ala-Phe-Phe-NH2] | 15 to 30 |  |  |  |  |  | 
N=C(N)NCCC[C@@H](NC(=O)[C@@H](N)Cc1ccc(O)cc1)C(=O)N[C@@H](Cc1ccccc1)C(=O)N[C@@H](Cc1ccccc1)C(N)=O [BCH2687, H-Tyr-D-Arg-Phe-Phe-NH2] |  | 0.68 | 0.88 | 2430 | 1650 | 6.7 | 8.71
